Measured values from the supplement of paper PMC11732987, “Enantioselective OTUD7B fragment discovery through chemoproteomics screening and high-throughput optimisation” (Communications Chemistry, 2025).
The other results are listed elsewhere or left out. The data scatter; read single values as rough.

Tests used:
[1] = compound: ClCC(=O)N[C@@H]1CCCc2ccccc12; test: log2 mean competition ratio of IA-DTB cysteine labelling (DMSO/compound) (log2 ratio); higher = stronger cysteine engagement by compound; details: treatment time: 4 h, cell line lysate: HEK293T
Method: (§1)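 IA-DTB competitive cysteine chemoproteomics in HEK293T RIPA lysate. Lysates were treated with compound 29 or 30 at 50 or 200 µM for 4 h, then IA-DTB (500 µM, 1 h), trypsin-digested, NeutrAvidin-enriched and analysed by diaPASEF. Competition ratio = intensity DMSO / intensity compound (n=4 treated, n=64 DMSO); binding: mean log2 CR ≥ 1 and p ≤ 0.05 plus QC filters. Target is the cysteine site.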

[2] = compound: ClCC(=O)N[C@H]1CCCc2ccccc12; test: as above; details: treatment time: 4 h, cell line lysate: HEK293T
Method: as §1

| Target | log2 mean competition ratio ([1]; 50 µM) | log2 mean competition ratio ([1]; 200 µM) | log2 mean competition ratio ([2]; 50 µM) | log2 mean competition ratio ([2]; 200 µM) |
| --- | --- | --- | --- | --- |
| RAB3IL1 C29 | -0.0951 | 0.319 | -0.13 | 0.209 |
| PYCR1 C120 | 0.143 | 0.104 | -0.152 | 0.0776 |
| PSME3 C92 | -0.0194 | 0.00662 | -0.0089 | 0.0151 |
| PWWP3A C228 | -0.282 | -0.329 | -0.0691 | -0.509 |
| RAB22A C9 (UniProt Q9UL26) | -0.055 | 0.00108 | -0.364 | 0.0165 |
| PUS3 C420 (UniProt Q9BZE2) | 0.0649 | 0.322 | 0.0978 | 0.309 |
| PUS7 C421 (UniProt Q96PZ0) | 0.15 | -0.185 | -0.00877 | -0.057 |
| PSIP1 C204 | -0.445 | 0.137 | -0.836 | 0.0813 |
| PSMC5 C209 | 0.191 | 0.172 | 0.0441 | 0.0431 |
| RADIL C671 | 0.0611 | 0.311 | 0.0612 | 0.46 |
| PSMD5 C64 (UniProt Q16401) | 0.0868 | 0.038 | -0.406 | -0.159 |
| PSMD11 C289 (UniProt O00231) | 0.31 | 0.00223 | 0.3 | 0.0204 |
| PSMD13 C357 (UniProt Q9UNM6) | 0.102 | -0.351 | 0.00967 | -0.216 |
| RACGAP1 C109 (UniProt Q9H0H5) | 0.25 | -0.208 | 0.994 | -0.0234 |
| PTBP3 C500 (UniProt O95758) | 0.313 | -0.207 | 0.228 | -0.202 |
| PSMD2 C251 (UniProt Q13200) | 0.0791 | -0.109 | -0.256 | -0.167 |
| PSMD6 C58 (UniProt Q15008) | 0.296 | 0.0436 | 0.306 | 0.181 |
| RAC1 C157 (UniProt P63000) | 0.0996 | -0.0196 | -0.362 | -0.00923 |
| RABGAP1 C433 (UniProt Q9Y3P9) | -0.0193 | -0.149 | 0.269 | -0.0725 |
| PYGB C808 (UniProt P11216) | -0.0971 | -0.163 | 0.0179 | 0.113 |
| PTPDC1 C551 (UniProt A2A3K4) | 0.131 | 0.191 | 0.15 | 0.205 |
| PSAP C33 (UniProt P07602) | 0.387 | 0.315 | 0.61 | 0.461 |
| RAB12 C159 | 0.0453 | 0.0274 | -0.361 | -0.0102 |
| PTPN1 C32 (UniProt P18031) | -0.0221 | 0.202 | 0.0288 | 0.222 |

Rewritten with bars between the fields: entries from further up.
Target | log2 mean competition ratio ([1]; 50 µM) | log2 mean competition ratio ([1]; 200 µM) | log2 mean competition ratio ([2]; 50 µM) | log2 mean competition ratio ([2]; 200 µM)
PWWP3A C228 | -0.282 | -0.329 | -0.0691 | -0.509
RAB22A C9 (UniProt Q9UL26) | -0.055 | 0.00108 | -0.364 | 0.0165

The listing continues.

| Target | log2 mean competition ratio ([1]; 50 µM) | log2 mean competition ratio ([1]; 200 µM) | log2 mean competition ratio ([2]; 50 µM) | log2 mean competition ratio ([2]; 200 µM) |
| --- | --- | --- | --- | --- |
| PSMC1 C148 | -0.243 | 0.265 | -0.484 | -0.0605 |
| PXN C546 (UniProt P49023) | -0.0415 | -0.116 | 0.03 | 0.0452 |
| RAD54L C295 (UniProt Q92698) | -0.123 | 0.601 | 0.0857 | -0.18 |
| PRRC2C C223 (UniProt Q9Y520) | -0.0177 | -0.00157 | 0.148 | 0.0185 |
| RADIL C73 | 0.0505 | 0.184 | -0.0615 | 0.183 |
| PTK2 C658 (UniProt Q05397) | -0.00566 | 0.132 | -0.133 | 0.109 |
| RABGAP1L C665 (UniProt Q5R372) | -0.0358 | 0.0858 | -0.383 | -0.0667 |
| PTPN13 C324 (UniProt Q12923) | 0.26 | -0.000176 | 0.174 | 0.079 |
| PTPN9 C230 (UniProt P43378) | -0.206 | -0.16 | -0.226 | -0.217 |
| RAB1A C126 (UniProt P62820) | 0.0821 | -0.182 | 0.116 | -0.106 |
| QRSL1 C236 (UniProt Q9H0R6) | -0.198 | -0.296 | -0.141 | 0.009 |
| PSRC1 C178 (UniProt Q6PGN9) | 0.133 | -0.0118 | 0.263 | 0.0857 |
| PUS7L C142 (UniProt Q9H0K6) | 0.0419 | 0.00628 | -0.111 | 0.015 |
| RAD17 C141 (UniProt O75943) | -0.217 | 0.13 | -0.0424 | 0.288 |
| PSMC2 C377 (UniProt P35998) | 0.0671 | 0.231 | -0.231 | 0.0837 |
| PUS3 C453 (UniProt Q9BZE2) | -0.199 | -0.015 | -0.277 | 0.281 |
| PTK2 C459 (UniProt Q05397) | 0.0397 | 0.0768 | 0.0187 | 0.137 |
| PTPN11 C259 | -0.593 | 0.601 | 0.0773 | 0.713 |
| PSMD1 C104 | -0.166 | -0.0484 | 0.126 | -0.298 |
| RABL2B C26 | 0.0502 | 0.11 | -0.123 | 0.128 |
| RAB3IP C195 (UniProt Q96QF0) | -0.192 | 0.626 | -0.259 | 0.341 |
| RAB3B C184 (UniProt P20337) | -0.122 | -0.0829 | 0.0301 | -0.0416 |
| PTK2 C288 (UniProt Q05397) | 0.538 | -0.332 | 0.302 | -0.233 |
